Results taken from patent US20070191273A1.
No constants are given. Whether binding was seen depends on the method and setting. For some of these results: In cells and extracts the contact can be indirect. Some entries that bind do so weakly or less than the wild type.

Tests used:
[1] = biological target: T1, VEGF-A, endogenous, mouse cornea (mouse) (UniProt Q00731); assay: co-immunoprecipitation from mouse cornea lysate: IP with anti-VEGF-A antibody, immunoblot with biotinylated anti-flt-1 N-terminus antibody
T1 sequence (looked up): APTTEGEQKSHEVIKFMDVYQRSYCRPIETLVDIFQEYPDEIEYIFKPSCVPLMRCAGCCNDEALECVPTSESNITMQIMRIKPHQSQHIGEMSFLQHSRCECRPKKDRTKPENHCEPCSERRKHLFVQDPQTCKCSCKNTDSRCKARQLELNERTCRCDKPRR

[2] = biological target: T1, VEGF-A, endogenous, mouse cornea (mouse); assay: immunoprecipitation of mouse corneas with antibody to the sFLT unique tail, western blot for VEGF (25 kD band); supernatant versus immunoprecipitate
[3] = biological target: T1, VEGF-A, endogenous, mouse cornea (mouse); assay: immunoprecipitation of mouse corneas with antibody to the sFLT unique tail, western blot for VEGF (25 kD band)
[4] = biological target: T1, VEGF-A, endogenous, mouse cornea (mouse); assay: co-immunoprecipitation from mouse cornea (FIG. 1, panel H)

Measured: binding

B1: soluble VEGF receptor-1 (sflt-1), endogenous, mouse cornea (receptor, UniProt P35969 23-657, looked up)
chain: YGSGSKLKVPELSLKGTQHVMQAGQTLFLKCRGEAAHSWSLPTTVSQEDKRLSITPPSACGRDNRQFCSTLTLDTAQANHTGLYTCRYLPTSTSKKKKAESSIYIFVSDAGSPFIEMHTDIPKLVHMTEGRQLIIPCRVTSPNVTVTLKKFPFDTLTPDGQRITWDSRRGFIIANATYKEIGLLNCEATVNGHLYQTNYLTHRQTNTILDVQIRPPSPVRLLHGQTLVLNCTATTELNTRVQMSWNYPGKATKRASIRQRIDRSHSHNNVFHSVLKINNVESRDKGLYTCRVKSGSSFQSFNTSVHVYEKGFISVKHRKQPVQETTAGRRSYRLSMKVKAFPSPEIVWLKDGSPATLKSARYLVHGYSLIIKDVTTEDAGDYTILLGIKQSRLFKNLTATLIVNVKPQIYEKSVSSLPSPPLYPLGSRQVLTCTVYGIPRPTITWLWHPCHHNHSKERYDFCTENEESFILDPSSNLGNRIESISQRMTVIEGTNKTVSTLVVADSQTPGIYSCRAFNKIGTVERNIKFYVTDVPNGFHVSLEKMPAEGEDLKLSCVVNKFLYRDITWILLRTVNNRTMHHSISKQKMATTQDYSITLNLVIKNVSLEDSGTYACRARNIYTGEDILRKTEVLVR
binds: all assays above
